From patent US20240201191A1, “CITRULLINATED PROTEINS AS BIOMARKERS AND THERAPY TARGETS FOR CANCER” (BOARD OF REGENTS, THE UNIVERSITY OF TEXAS SYSTEM, priority 2022, published 2024) come the findings set out here.

The subject of this series is MDA-MB-468 (TNBC) cells. In words: Cell surface HLA-bound peptidyl-citrullinome by mass spectrometry, MDA-MB-468. Format: cell-based, human. The conditions noted are these: mild acid elution, LC-MS/MS, FDR=0.01; class by peptide length.

Some compounds share one range, which may span the group rather than tell each member.

On to “SLTGLLLLQAVSWASGAR*P (SLTGLLLLQAVSWASGARP; citrulline at R18; MOD_RES (18)..(18) Citrullinated Arginine) [SEQ ID NO: 52, GBA peptide, R18(Cit.)]”, for which the “Cell surface MHC binding citrullinated peptide identified in MDA-MB-468 (TNBC)” value was “MHC-II (from 12 to 34 as MHC-IU binding peptides)”.
